Laboratory results from PubChem BioAssay AID250 (DTP/NCI, 2004).
The list is a part of this screen's results and no random one: it gathers some chemical classes. Not every dose and run of a compound is shown. T/C is the treated group as % of the vehicle group. Some doses have a count of surviving animals in place of a T/C: the source holds a T/C of zero for them, seemingly a mark for toxic or unscored doses. Some doses without a T/C left all or most animals alive at the check, yet need not have been tolerated: the source hardly ever lists a survival T/C far under the control, and the zero likely stands for such cases as well. For part of these data: Counts of survivors are from the toxicity check (mostly the fifth day) where no day follows; animals may have died later. Schedules are NCI's codes, read here as Q, the interval in days (D) or hours (H), X, the number of doses. For survival time, this PubChem deposit counts one and a half times the control or more as active, and values a quarter to a half above the control carry no call in these data; other NCI protocols may use other cut-offs. Some T/C values carry the count of animals alive at the toxicity check (mostly the fifth day); without a count or a note in brackets, all were alive then.

Columns and labels:
[1] = tested on: BDF1 mice, L1210 leukemia sc, survival T/C; experiment: NCI In Vivo Anticancer Drug Screen. Data for tumor model L1210 Leukemia (subcutaneous) in B6D2F1 (BDF1) mice; settings: T/C endpoint: median survival time, higher T/C = longer survival
Procedure: (§1) The antitumor activity of compounds was measured in mice bearing transplantable tumors. Survival or tumor size were measured and the results are expressed as the measurement made in the treated group (T) divided by the measurement made in the vehicle treated control group (C). The tumor model used in this assay is L1210 Leukemia (subcutaneous) in B6D2F1 (BDF1) mice

[2] = tested on: BDF1 mice, L1210 leukemia sc; experiment: as above; settings: T/C endpoint: median survival time, higher T/C = longer survival
Procedure: as §1

O=P1(N(CCCl)CCCl)OCCCN1CCCl (stereo not given)
T/C ([1]; dose: 7.8 mg/kg/injection, schedule: Q03HX008 (ip), vehicle: water): 122 % of control | T/C ([1]; dose: 7.8 mg/kg/injection, schedule: Q03HX008 (sc), vehicle: water): 111 % of control | T/C ([1]; dose: 15.62 mg/kg/injection, schedule: Q03HX008 (ip), vehicle: water): 155 % of control | T/C ([1]; dose: 15.62 mg/kg/injection, schedule: Q03HX008 (sc), vehicle: water): 155 % of control | T/C ([1]; dose: 23.0 mg/kg/injection, schedule: Q03HX008 (sc), vehicle: water): 200 % of control | T/C ([1]; dose: 31.25 mg/kg/injection, schedule: Q03HX008 (ip), vehicle: water): 611 % of control | T/C ([1]; dose: 31.25 mg/kg/injection, schedule: Q03HX008 (sc), vehicle: water): 544 % of control | T/C ([1]; dose: 39.0 mg/kg/injection, schedule: Q01DX009 (sc), vehicle: water): 184 % of control | T/C ([1]; dose: 39.0 mg/kg/injection, schedule: Q03HX008 (sc), vehicle: water): 231 % of control | T/C ([1]; dose: 62.5 mg/kg/injection, schedule: Q03HX008 (ip), vehicle: water): 611 % of control | T/C ([1]; dose: 62.5 mg/kg/injection, schedule: Q03HX008 (sc), vehicle: water): 611 % of control | T/C ([1]; dose: 65.0 mg/kg/injection, schedule: Q01DX009 (sc), vehicle: water): 200 % of control | T/C ([1]; dose: 65.0 mg/kg/injection, schedule: Q03HX008 (sc), vehicle: water): 310 % of control | T/C ([1]; dose: 65.0 mg/kg/injection, schedule: Q04DX003 (sc), vehicle: water): 121 % of control | T/C ([1]; dose: 108.0 mg/kg/injection, schedule: Q01DX009 (sc), vehicle: water): 273 % of control | T/C ([1]; dose: 108.0 mg/kg/injection, schedule: Q08DX002 (sc), vehicle: water): 210 % of control | T/C ([1]; dose: 125.0 mg/kg/injection, schedule: Q01DX001 (ip), vehicle: water): 211 % of control | T/C ([1]; dose: 125.0 mg/kg/injection, schedule: Q01DX001 (sc), vehicle: water): 166 % of control | T/C ([1]; dose: 180.0 mg/kg/injection, schedule: Q01DX001 (sc), vehicle: water): 189 % of control | T/C ([1]; dose: 180.0 mg/kg/injection, schedule: Q01DX009 (sc), vehicle: water): 163 % of control | survivor count ([1]; dose: 180.0 mg/kg/injection, schedule: Q03HX008 (sc), vehicle: water): 4 of 8 | T/C ([1]; dose: 180.0 mg/kg/injection, schedule: Q08DX002 (sc), vehicle: water): 121 % of control | T/C ([1]; dose: 250.0 mg/kg/injection, schedule: Q01DX001 (ip), vehicle: water): 605 % of control | T/C ([1]; dose: 250.0 mg/kg/injection, schedule: Q01DX001 (sc), vehicle: water): 205 % of control | T/C ([1]; dose: 300.0 mg/kg/injection, schedule: Q01DX001 (sc), vehicle: water): 215 % of control | T/C ([1]; dose: 300.0 mg/kg/injection, schedule: Q01DX009 (sc), vehicle: water): 121 % of control | T/C ([1]; dose: 300.0 mg/kg/injection, schedule: Q04DX003 (sc), vehicle: water): 431 % of control | survivor count ([1]; dose: 500.0 mg/kg/injection, schedule: Q01DX001 (ip), vehicle: water): 0 of 8 | T/C ([1]; dose: 500.0 mg/kg/injection, schedule: Q01DX001 (sc), vehicle: water, evaluated on day 40): 105 % of control | T/C ([1]; dose: 500.0 mg/kg/injection, schedule: Q01DX001 (sc), vehicle: water, evaluated on day 55): 611 % of control | T/C ([1]; dose: 500.0 mg/kg/injection, schedule: Q04DX003 (sc), vehicle: water): 105 % of control | T/C ([1]; dose: 500.0 mg/kg/injection, schedule: Q08DX002 (sc), vehicle: water): 105 % of control [6 of 8 alive] | survivor count ([1]; dose: 833.0 mg/kg/injection, schedule: Q01DX001 (sc), vehicle: water): 3 of 8 | survivor count ([1]; dose: 833.0 mg/kg/injection, schedule: Q08DX002 (sc), vehicle: water): 3 of 8 | survivor count ([1]; dose: 1000.0 mg/kg/injection, schedule: Q01DX001 (ip), vehicle: water): 0 of 8 | T/C ([1]; dose: 1000.0 mg/kg/injection, schedule: Q01DX001 (sc), vehicle: water): 611 % of control | survivor count ([1]; dose: 1388.0 mg/kg/injection, schedule: Q01DX001 (sc), vehicle: water): 0 of 8 | T/C ([2]; dose: 23.0 mg/kg/injection, schedule: Q01DX009 (sc), vehicle: water): 142 % of control | T/C ([2]; dose: 39.0 mg/kg/injection, schedule: Q04DX003 (sc), vehicle: water): 136 % of control | T/C ([2]; dose: 65.0 mg/kg/injection, schedule: Q08DX002 (sc), vehicle: water): 147 % of control | T/C ([2]; dose: 108.0 mg/kg/injection, schedule: Q03HX008 (sc), vehicle: water): 147 % of control | T/C ([2]; dose: 108.0 mg/kg/injection, schedule: Q04DX003 (sc), vehicle: water): 142 % of control | T/C ([2]; dose: 180.0 mg/kg/injection, schedule: Q04DX003 (sc), vehicle: water): 126 % of control | T/C ([2]; dose: 300.0 mg/kg/injection, schedule: Q08DX002 (sc), vehicle: water): 126 % of control

NC1CCCCC1.O=P(O)(NCCCO)N(CCCl)CCCl
T/C ([1]; dose: 108.0 mg/kg/injection, schedule: Q04DX003 (ip), vehicle: steroid suspending solution): 111 % of control | T/C ([1]; dose: 108.0 mg/kg/injection, schedule: Q04DX003 (sc), vehicle: steroid suspending solution): 111 % of control | T/C ([1]; dose: 180.0 mg/kg/injection, schedule: Q01DX001 (ip), vehicle: steroid suspending solution): 111 % of control | T/C ([1]; dose: 180.0 mg/kg/injection, schedule: Q01DX001 (sc), vehicle: steroid suspending solution): 111 % of control | T/C ([1]; dose: 180.0 mg/kg/injection, schedule: Q04DX003 (ip), vehicle: steroid suspending solution): 122 % of control | T/C ([1]; dose: 180.0 mg/kg/injection, schedule: Q04DX003 (sc), vehicle: steroid suspending solution): 111 % of control | T/C ([1]; dose: 300.0 mg/kg/injection, schedule: Q01DX001 (ip), vehicle: steroid suspending solution): 122 % of control | T/C ([1]; dose: 300.0 mg/kg/injection, schedule: Q01DX001 (sc), vehicle: steroid suspending solution): 111 % of control | T/C ([1]; dose: 300.0 mg/kg/injection, schedule: Q04DX003 (ip), vehicle: steroid suspending solution): 161 % of control | T/C ([1]; dose: 500.0 mg/kg/injection, schedule: Q01DX001 (sc), vehicle: steroid suspending solution): 88 % of control | T/C ([1]; dose: 500.0 mg/kg/injection, schedule: Q04DX003 (ip), vehicle: steroid suspending solution): 100 % of control | T/C ([1]; dose: 500.0 mg/kg/injection, schedule: Q04DX003 (sc), vehicle: steroid suspending solution): 88 % of control [7 of 8 alive] | survivor count ([1]; dose: 833.0 mg/kg/injection, schedule: Q01DX001 (ip), vehicle: steroid suspending solution): 7 of 8 | survivor count ([1]; dose: 833.0 mg/kg/injection, schedule: Q01DX001 (sc), vehicle: steroid suspending solution): 2 of 8 | T/C ([2]; dose: 300.0 mg/kg/injection, schedule: Q04DX003 (sc), vehicle: steroid suspending solution): 133 % of control | T/C ([2]; dose: 500.0 mg/kg/injection, schedule: Q01DX001 (ip), vehicle: steroid suspending solution): 138 % of control
